Experimental data reported in PubChem BioAssay AID1347426 (Functional Genomics Laboratory (NCATS/FGL), 2020).
The campaign covered roughly 31,000 sequences. About 1,400 (4.5%) were called active.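 How the source made its calls: active means median seed-adjusted z-score above 1 or below -1; inactive means the rest.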 This is one part of the list.

Experiment: Novel Modifiers of Survival Motor Neuron (SMN) Protein: Gene Identification via Genome-wide siRNA Screen;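 further: luminescence tracks full-length SMN protein made from the SMN2 reporter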
Conditions: HEK293T SMN2-luciferase reporter, siRNA knockdown, 72 h; actives lie on both sides
Summary of the method: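 Each of three siRNAs per gene is reverse-transfected (1 pmol) into reporter HEK293T cells whose luciferase output tracks SMN protein level. After 72 h culture, ONE-Glo luminescence is control-normalized, log10-transformed and MAD-standardized; Common Seed Analysis deprioritizes seed-driven hits.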

Row | Sequence | median seed-adjusted z-score
1 | GCGACAACGUGGUACUCAUTT against CORO1B | inactive: 0.405
2 | AAACUCCAGAUAAAGUAAATT against CTSH | inactive: -0.81
3 | CAAAAUCGAUGCAAACAAUTT against BBOX1 | inactive: 0.152
4 | AGCUCAGAGAGGAUCAAGATT against LEPREL2 | inactive: 0.0022
5 | CAGGCAGAUUGCUCAAGAATT against KSR2 | inactive: -0.371
6 | GGCUGUUGCUAAUGCUAAATT against PLA2G4C | inactive: 0.331
7 | CCACCUUAAAACUCACGUUTT against MTF1 | inactive: -0.709
8 | CCACAAGCCCAAACAAUCATT against SP1 | inactive: 0.544
9 | GGAGUUUGCUUACCACGGUTT against RFX6 | inactive: 0.119
10 | GGAUAUAAGAGACCAUUGATT against KIF3B | inactive: 0.554
11 | AGAUUGACUCGGUGAAAUATT against RAC2 | inactive: -0.596
12 | AGAUGGUCAUCUUACUCAUTT against PTGER4 | inactive: -0.289
13 | CAGUAGUGAUAUCCACUUATT against OXGR1 | inactive: -0.0388
14 | CAUCCGAUCUGAUAGGUCUTT against EFEMP1 | inactive: 0.0157
15 | CAAGGAGCAGGGAUAUGAATT against ADAP2 | active: -1.1
16 | CCUUCUACAUGACCAACUATT against BCKDHA | inactive: -0.299
17 | GUACAAUUCGUGUCAAUUUTT against PPIE | inactive: -0.699
18 | GGAAGAGAUUUAUAACAAATT against DLG3 | inactive: -0.317
19 | CAGGAAACCUGACAGUUCATT against IL4R | inactive: 0
20 | GGUCAGAGCUGACGAUGAATT against HSP90B1 | inactive: 0
21 | AGAAAGGCCUGUUCAACUATT against DUSP10 | inactive: 0.28
22 | GCCUCUACAAGGAUUAUGATT against GJB4 | inactive: 0.131

Row | Sequence | median seed-adjusted z-score
23 | GCGGCUAGCUUUACGAGAATT against ZFYVE16 | inactive: 0.314
24 | AAGCUUGUGCUGUAAAAUATT against NDUFA2 | inactive: -0.694
25 | UCAUCGUCCUCACUUUUAATT against LRRC33 | inactive: -0.194
26 | GGACAAUCCCGAAUAUGUUTT against CRLS1 | inactive: 0.555
27 | GCAACGAAGUGGUGAAUCUTT against UPF2 | inactive: -0.376
28 | GGGCGAGCAUUUUCGAGAATT against USP7 | inactive: 0.105
29 | CGGGAGCAGUUUAACGAAUTT against RCN1 | inactive: 0.236
30 | CGUUUGUACCUAUCAGUUUTT against DONSON | inactive: -0.882
31 | UGAUUGCUGCGGACCGCUATT against MC2R | inactive: 0
32 | CGAUAUAUCUCAUAUAACATT against ENPEP | inactive: 0.666
33 | CAACUGAUGAGGUCGAGAATT against ZNF638 | inactive: 0.63
34 | CAGUGAUGACAAUAAACAATT against PCDHA6 | inactive: 0.419
35 | GGUUAGAAGCUCAAGGGUATT against BRD1 | inactive: 0.0644
36 | GCACAAGUCCAGUCUCUGATT against KRT39 | inactive: 0.161
37 | CCGUUACCCUUGACCUGGATT against KIF7 | inactive: 0.0274
38 | GCUUCAUUGAGUACGAGAATT against PUF60 | active: 2.26
39 | ACCUAGAGCCGUUUCUAAATT against CD14 | inactive: 0.0723
40 | CCUCAAAGCUUGUAUUCCATT against KCNMB4 | inactive: 0
41 | GGCUCUUCUUGGAUAGAGATT against EOMES | inactive: -0.0248
42 | CAUCGGCCUGAGAACAAUATT against ALPK2 | inactive: -0.154
43 | CUAAGUACUUUGAAUCCAATT against CD48 | inactive: -0.0981
44 | AGAGGUUUGGCAGAAAUACTT against NPFF | inactive: -0.631

A few values from the entries so far:
Value for CCUCAAAGCUUGUAUUCCATT against KCNMB4 under median seed-adjusted z-score: inactive: 0
Value for GCUUCAUUGAGUACGAGAATT against PUF60 under median seed-adjusted z-score: active: 2.26
Value for AAGCUUGUGCUGUAAAAUATT against NDUFA2 under median seed-adjusted z-score: inactive: -0.694
Value for AGAGGUUUGGCAGAAAUACTT against NPFF under median seed-adjusted z-score: inactive: -0.631
Value for GGGCGAGCAUUUUCGAGAATT against USP7 under median seed-adjusted z-score: inactive: 0.105
Value for UGAUUGCUGCGGACCGCUATT against MC2R under median seed-adjusted z-score: inactive: 0
Value for GGUUAGAAGCUCAAGGGUATT against BRD1 under median seed-adjusted z-score: inactive: 0.0644

More results:

Row | Sequence | median seed-adjusted z-score
45 | CUAUCCCUGUGAUCAAUGUTT against ZNF271 | inactive: 0.484
46 | CGGUGAAAGUGCGGGAACATT against ATOH1 | inactive: -0.374
47 | GAGACAACAUGAAUGACAATT against CHGB | active: -1.29
48 | GGCUAAAUGUGAGAAUCCATT against IL13RA1 | inactive: 0.269
49 | CUACCGCAACAUCUGGAAATT against SLC22A17 | inactive: -0.149
50 | AGACAGACCUGCGAACAGATT against RND1 | inactive: -0.393
51 | CCAUGCAAAUGAAAUGUAATT against IGF2 | inactive: -0.0306
52 | GCCCGUAAUUUAUCGCGCUTT against PTGDR | inactive: -0.158
53 | ACAGAGCUAGUGUCCAAAATT against RXRB | inactive: 0.147
54 | AGACAAACGAUGAUAUGAATT against VASN | inactive: 0.213
55 | GCUUUUCGGCCCUGACUUATT against SERPINF2 | inactive: 0.629
56 | GCAUAUUACAUCACCACGATT against SGMS1 | inactive: -0.287
57 | GGCUCAUUGAGACGACUGATT against RCADH5 | inactive: -0.158
58 | GGAGAUAGCUAGACCUCUUTT against NES | inactive: 0.613
59 | CCCUUGUUGCAAGAAGAAATT against MICB | inactive: 0.162
60 | CACGCACCUUGGAAUUGAATT against CSNK1D | inactive: 0.202
61 | CUACCGGAAUGAAUCUCUATT against PIK3R1 | inactive: 0.196
62 | CCAUGUUCCAACAUCGGUATT against RLF | inactive: 0
63 | AGCUGGAUAUGUUCCCAGATT against DAO | inactive: -0.00887
64 | GACCAGAUGUGGACAAUCATT against TAF6 | active: -1.36
65 | GCAUAUCUGAGGUGAAUCATT against SEC23B | inactive: 0.48
66 | UGACCGAUGUCUUCCUUAUTT against RHOQ | inactive: -0.328

Row | Sequence | median seed-adjusted z-score
67 | GAACAUCCUGUUUCGCUUUTT against GAL3ST3 | inactive: -0.54
68 | UCACAGGCUUUGAAACCAATT against ADCK4 | inactive: -0.181
69 | CUCAAGUAAUCAUUCCCAATT against HOMER2 | inactive: 0.522
70 | GUCACAAGAUGGUCAAAAATT against CTNND2 | inactive: -0.0491
71 | GUGACAAAACUGACGUGAATT against IL1R2 | inactive: 0.429
72 | GCUUGUUGUUUGGUAUUCATT against CYP7B1 | inactive: 0.598
73 | CAUUGUCUUUGCUUACAUUTT against GRIA3 | inactive: -0.358
74 | CUUCCUUCCCUAUUAAAAUTT against HLA-A | inactive: 0.189
75 | GCAGAGUCACAGGAACUCATT against TRIM26 | inactive: 0
76 | CAUGCUGAACGUAAACUAUTT against CEACAM1 | inactive: -0.211
77 | GCAACAUAAUGAAAUCACUTT against MMP14 | inactive: -0.0145
78 | GGUGGACCAUGUCAACGAUTT against GLIS2 | inactive: 0.206
79 | CAGCACACGUCAUUUCUUATT against GPR44 | inactive: -0.527
80 | GAGUUUUUCUAUGACAUCATT against RPH3A | inactive: 0.232
81 | GGAGGUACGUGGAAAAGCATT against ORC3L | inactive: -0.254
82 | GGCUCGUCAUUGGAGGUGATT against TRAF1 | inactive: 0.518
83 | CAAUAAAACUGACUCUCAATT against ETFB | inactive: 0.0669
84 | UGCCCGUCAUUGUCAACAATT against KCNC3 | inactive: 0.279
85 | AGAGAUGCUGGAACCUUUUTT against PCDHB13 | inactive: -0.293
86 | GACCUACCCAUGUUAUUCATT against HIVEP2 | inactive: 0.294
87 | GGCGCAUUAUGUGCUACUATT against GPR44 | inactive: -0.527
88 | GGCCGAUAUGGAGAAGUAUTT against BMPR1A | inactive: 0.797

Row | Sequence | median seed-adjusted z-score
89 | CGAAAACAGGAGAUCAUUATT against CAMK2G | inactive: -0.107
90 | GGUUGUAACUGCAAGAUCATT against TIMP3 | active: -1.05
91 | GGCGGCAAGACGUAAGGAATT against SEMA3B | inactive: 0.000251
92 | AGAUCCUGGAAUAUAUAAATT against MSRB3 | inactive: -0.218
93 | CAGACUACCCUGAUAGUUUTT against FLVCR1 | inactive: 0.197
94 | CGGCUAGAGAUGAUCGCUATT against UBE3A | inactive: 0.0949
95 | GGCAACAAGUCAAGGAUAATT against PSPH | inactive: -0.518
96 | GGAUGAUCGUCAUUGGUCUTT against DDX23 | inactive: -0.468
97 | GUCAUUUUCUGGAUUAAUUTT against P2RY12 | inactive: 0.143
98 | GGUCUACAGGCUAUCGAUATT against ARL10 | inactive: -0.455
99 | AGCACAAGCGGGAGAUUUATT against DNAJB2 | inactive: 0
100 | GCUUCAACCAUUGACAGUUTT against FCGR2A | inactive: -0.19
101 | GGACCUCUUCUACACGGAATT against RASGRP4 | inactive: 0.162
102 | GAGUGUGAGUUCUACUUCATT against PLOD3 | inactive: -0.258
103 | GAAAUCUACUCUAAAACCATT against RFC2 | inactive: 0.00126
104 | GGAAAGUUUUUAAGGCGAATT against UHRF2 | inactive: -0.0941
105 | GCAGCUCUGUGCGAAUGUUTT against FBLN5 | inactive: -0.0832
106 | GGAACAGCGCAGUACGUUUTT against PDPK1 | inactive: 0.0807
107 | UCUUUUAUCUGUUCCUCCATT against OGG1 | inactive: -0.128
108 | GGAGGAAUGUCGUCCUGAUTT against SCD5 | inactive: -0.167
